Source: PubChem BioAssay AID1487 (National Center for Advancing Translational Sciences (NCATS), 2009)
Several values for one entry are separate records, joined by “and”; a condition that tells them apart may be missing. Identical values can stand only once. The list shows a part of the results. The main result of the screen is listed elsewhere. These columns were measured beside it and carry no call. Most of these compounds were active or inconclusive in the main read-out, so they are no random draw. Words in brackets tell the shape of the fitted curve; partial curves, single points and poor fits give uncertain potencies.

Experiment: qHTS Assay for Modulators of Lamin A Splicing
Conditions: HeLa LMNA splicing GFP/RFP minigene ratio, 48 h
Procedure, shortened: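 Read-out is the ratio of GFP to DsRed2 object intensity, acquired by 488 nm laser-scanning cytometry on HeLa lamin A-EGFP minigene reporter cells. Compound incubation 48 hrs at 37 °C in Opti-MEM with 2% FBS; DMSO 0.5% final.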

[1] = measured here: GFP splicing reporter channel
[2] = measured here: RFP viability control channel

With `CC(C)CC(COCc1ccc(Cl)cc1)N1CCN(C(=O)c2ccc(C(F)(F)F)cc2)CCC1=O` (stereo not given) the AC50 [1] was 14.1 µM [rising, partial curve] and the AC50 [2] was 14.1 µM [rising, partial curve].

With `NCCS` the AC50 [2] was 20 µM [rising, single point] and 3.98 µM [falling, partial curve].

With `O=C(NCCc1cccs1)c1ccc(Cl)c(Cl)c1` the AC50 [2] was 0.891 µM [falling, full curve, poor fit].

For `COC(=O)c1sc(NC(=S)NC(=O)c2ccccc2C)nc1C`, the AC50 [2] was 0.00355 µM [falling, full curve, poor fit].

For `O=C(O)c1cc(Br)ccc1NN=C1CCCCC1`, the AC50 [1] was 0.0447 µM [falling, full curve, poor fit].

For `Cc1cc(C)c2c(N=NN3CCOCC3)[nH]nc2n1`, the AC50 [2] was 22.4 µM [rising, single point].

In the case of `CO/N=C/c1ccc(N2CCOCC2)c([N+](=O)[O-])c1`, the AC50 [2] was 20 µM [rising, partial curve].

For `CCCCn1c(CN2CCN(c3cccc(Cl)c3)CC2)nc2c1c(=O)[nH]c(=O)n2C`, the AC50 [2] was 3.16 µM [rising, single point].

With `NC(=O)c1cc(N2C(=O)C=CC2=O)ccc1Cl` the AC50 [2] was 35.5 µM [rising, single point].

For `Cc1cc(C)cc(NC(=O)CSCc2cc(=O)c3cc(Cl)ccc3[nH]2)c1`, the AC50 [1] was 0.398 µM [rising, full curve] and the AC50 [2] was 5.01 µM [rising, partial curve].

In the case of `Cc1cccc(NC(=O)Cn2nc(C)c3nn(-c4ccc(Cl)cc4)c(C)c3c2=O)c1C`, the AC50 [1] was 35.5 µM [falling, partial curve, poor fit] and the AC50 [2] was 35.5 µM [falling, partial curve, poor fit].

In the case of `CC(=O)c1cc2cc(O)ccc2o1`, the AC50 [1] was 2.51 µM [falling, full curve] and the AC50 [2] was 3.16 µM [falling, partial curve].

With `COc1ccc(C(=O)Nc2cccc(S(C)(=O)=O)c2)cc1OC` the AC50 [1] was 0.00501 µM [falling, full curve, poor fit] and the AC50 [2] was 0.00891 µM [falling, full curve, poor fit].

For `Cc1ccc(-c2c[n+](Cc3ccc(Cl)c(Cl)c3)c3n2CCC3)cc1`, the AC50 [1] was 6.31 µM [rising, single point] and the AC50 [2] was 6.31 µM [rising, full curve].

In the case of `Cc1cccc(N2C(=O)CSC23C(=O)N(CC(=O)NCCc2ccccc2)c2ccccc23)c1` (stereo not given), the AC50 [2] was 12.6 µM [rising, single point].

For `O=C(CN1CCN(c2ncc(C(F)(F)F)cc2Cl)CC1)Nc1ccc2c(c1)OCO2`, the AC50 [2] was 12.6 µM [rising, single point].

For `CN1C(C(=O)Nc2ccccn2)=C(O)c2ccccc2S1(=O)=O`, the AC50 [1] was 0.398 nM [falling, full curve, poor fit] and 355 nM [falling, full curve, poor fit].

In the case of `CCCCn1nc(C(=O)N[C@@H](CCSC)c2nc3ccccc3[nH]2)c2ccccc2c1=O`, the AC50 [1] was 7.08 µM [rising, partial curve].

For `CC(C)(C)c1ccc(OCCNC(=S)NC(=O)c2cccnc2)cc1`, the AC50 [1] was 7.08 µM [rising, full curve] and the AC50 [2] was 8.91 µM [rising, partial curve, poor fit].

For `Nc1nc(CN2CCN(c3ccc(F)cc3)CC2)nc(N2CCCc3ccccc32)n1`, the AC50 [2] was 10 µM [rising, partial curve].

For `O=C(/C=C/c1ccc([N+](=O)[O-])cc1)NCc1ccccn1`, the AC50 [1] was 25.1 µM [rising, single point] and the AC50 [2] was 35.5 µM [rising, single point].

With `O=C1CC(c2ccccc2)C(C(=O)Nc2ccccc2F)N1` (stereo not given) the AC50 [2] was 1.41 µM [rising, full curve, poor fit].

In the case of `Cc1cc([N+](=O)[O-])ccc1NC(=O)Nc1ccc(F)cc1F`, the AC50 [2] was 7.08 µM [rising, single point].

In the case of `CCOC(=O)c1nc2sc3c(c2c(=O)n1C(C)C(=O)OCC)CCCC3` (stereo not given), the AC50 [1] was 0.501 µM [rising, full curve, poor fit].

For `Cc1cccc(-n2c3nc(=O)[nH]c(=O)c-3cc3cc([N+](=O)[O-])ccc32)c1`, the AC50 [1] was 15.8 µM [rising, single point] and the AC50 [2] was 17.8 µM [rising, single point].

With `O=C(NCc1ccccc1)c1noc2c1CCCC2` the AC50 [2] was 31.6 µM [rising, single point].

In the case of `CCN(CC)C(=O)CSc1ncccc1-c1nc2ccccc2[nH]1`, the AC50 [2] was 0.447 µM [falling, full curve, poor fit].

In the case of `Cc1nnc(NC(=O)c2ccc(C)c(S(=O)(=O)N3CCCCCC3)c2)s1`, the AC50 [2] was 35.5 µM [rising, single point].

With `CN1CCN(c2nc(-c3ccc(N(C)C)cc3)nc3ccccc23)CC1` the AC50 [1] was 28.2 µM [falling, single point].

In the case of `CC(C)(C)c1ccc(-c2nc(-c3ccncc3)no2)cc1`, the AC50 [1] was 35.5 µM [rising, single point] and the AC50 [2] was 35.5 µM [rising, single point].

With `Cn1c(N)c(C(=O)COC(=O)c2cc(S(=O)(=O)N3CCCCC3)ccc2Cl)c(=O)n(C)c1=O` the AC50 [1] was 8.91 µM [rising, partial curve] and the AC50 [2] was 11.2 µM [rising, single point].

In the case of `Cc1noc(C)c1C(=O)N1CC(C)OC(C)C1` (stereo not given), the AC50 [1] was 2.51 µM [falling, partial curve, poor fit] and the AC50 [2] was 1.78 µM [falling, full curve, poor fit].

In the case of `CCOC(=O)c1cccc(NC(=O)Cc2ccc(NC(=O)N3CCCCc4ccccc43)cc2)c1`, the AC50 [2] was 11.2 µM [rising, single point].

With `OCCCNC(c1ccccc1)c1ccc(O)cc1` (stereo not given) the AC50 [2] was 35.5 µM [rising, single point].

With `CC1(C)CC(c2csc(N)n2)CCO1` (stereo not given) the AC50 [1] was 14.1 µM [rising, partial curve].

For `CC1(OC(=O)C2CCCC2)C(=O)C=C2C=C(c3ccsc3)N(Cc3ccco3)C=C2C1=O` (stereo not given), the AC50 [1] was 0.00112 µM [rising, full curve, poor fit].

In the case of `O=C(c1cc(-c2ccccc2)nc2ccccc12)N1CCCc2ccccc21`, the AC50 [2] was 17.8 µM [rising, single point].

In the case of `CCOC(=O)c1ccc(N2CCN(c3cccc(Cl)c3)CC2)c(NC(=O)Nc2ccc(Cl)cc2)c1`, the AC50 [1] was 7.08 µM [falling, full curve, poor fit].

For `O=C(NNC1=C(C(=O)C(F)(F)F)CCC1)c1ccc(Cl)cc1`, the AC50 [1] was 35.5 µM [rising, single point] and the AC50 [2] was 35.5 µM [rising, single point].

With `CCOC(=O)c1[nH]c(C)c(CCC(=O)N2CCN(c3cc(Cl)ccc3C)CC2)c1C` the AC50 [1] was 22.4 µM [rising, partial curve, poor fit] and the AC50 [2] was 35.5 µM [rising, partial curve, poor fit].

In the case of `COc1ccc(Cl)cc1NC(=O)C1CCCN(c2cc(C)nc3ncnn23)C1` (stereo not given), the AC50 [2] was 2.24 µM [rising, partial curve, poor fit].

For `COc1ccc(-c2noc(N3CCN(c4cccc(Cl)c4)CC3)n2)cc1OC`, the AC50 [1] was 7.94 µM [falling, full curve, poor fit].

With `CCOC(=O)N1CCC(C(=O)Nc2ccc(OCC)cc2)CC1` the AC50 [2] was 3.55 µM [rising, partial curve].

In the case of `CCc1sc(Nc2ccc(Cl)cc2)nc1-c1cc2cccc(OC)c2oc1=O`, the AC50 [2] was 0.501 µM [rising, partial curve, poor fit].

For `CCCCC(c1nnnn1Cc1ccco1)N1CCN(c2nc3ccccc3s2)CC1` (stereo not given), the AC50 [1] was 10 µM [rising, partial curve] and the AC50 [2] was 14.1 µM [rising, partial curve].

For `CN(C)c1ccnc(SCc2ccccc2Cl)c1C#N`, the AC50 [1] was 11.2 µM [rising, partial curve] and the AC50 [2] was 11.2 µM [rising, partial curve].

For `COc1ccc(NC(=O)C2CCN(c3cc(C)nc(-c4ccccc4)n3)CC2)cc1`, the AC50 [2] was 17.8 µM [rising, single point].

With `O=C(NCC(c1cccnc1)N1CCN(c2ccccc2)CC1)OCc1ccccc1` (stereo not given) the AC50 [1] was 31.6 µM [rising, single point] and the AC50 [2] was 31.6 µM [rising, single point].

In the case of `Cc1ccc2c(ccc(=S)n2C)c1`, the AC50 [1] was 15.8 µM [falling, single point].

With `CC1(C)[C@@H](O)CC[C@]2(C)[C@H]3C(=O)C=C4[C@@H]5C[C@@](C)(C(=O)O)CC[C@]5(C)CC[C@@]4(C)[C@]3(C)CC[C@@H]12` the AC50 [1] was 35.5 µM [falling, single point] and the AC50 [2] was 0.0891 µM [falling, full curve, poor fit].

In the case of `Cc1ccc(CN2CCC(CNC(=O)c3cc4ccc5cccnc5c4[nH]3)CC2)cc1`, the AC50 [1] was 17.8 µM [falling, partial curve, poor fit] and the AC50 [2] was 11.2 µM [falling, partial curve].

With `CCN(CC)C(=O)COc1ccc(-c2nnc(N3CCCCC3)c3ccccc23)cc1` the AC50 [2] was 22.4 µM [rising, single point].

With `Cc1ccc(Nc2nnc(SCC(=O)Nc3cccnc3Cl)s2)cc1C` the AC50 [2] was 20 µM [rising, single point].

In the case of `O=C(Nc1ccc2nc(SCc3ccccc3)sc2c1)c1cccc(F)c1`, the AC50 [1] was 6.31 µM [rising, single point].

For `Fc1ccc(CNC(=S)Nc2cccc(Cl)c2)cc1`, the AC50 [1] was 11.2 µM [rising, partial curve, poor fit] and the AC50 [2] was 17.8 µM [rising, single point].
